This passage reports binding results from publication PMC10406883.

Chains of the proteins cited; added tags and fusions are not shown.
UniProt P08195: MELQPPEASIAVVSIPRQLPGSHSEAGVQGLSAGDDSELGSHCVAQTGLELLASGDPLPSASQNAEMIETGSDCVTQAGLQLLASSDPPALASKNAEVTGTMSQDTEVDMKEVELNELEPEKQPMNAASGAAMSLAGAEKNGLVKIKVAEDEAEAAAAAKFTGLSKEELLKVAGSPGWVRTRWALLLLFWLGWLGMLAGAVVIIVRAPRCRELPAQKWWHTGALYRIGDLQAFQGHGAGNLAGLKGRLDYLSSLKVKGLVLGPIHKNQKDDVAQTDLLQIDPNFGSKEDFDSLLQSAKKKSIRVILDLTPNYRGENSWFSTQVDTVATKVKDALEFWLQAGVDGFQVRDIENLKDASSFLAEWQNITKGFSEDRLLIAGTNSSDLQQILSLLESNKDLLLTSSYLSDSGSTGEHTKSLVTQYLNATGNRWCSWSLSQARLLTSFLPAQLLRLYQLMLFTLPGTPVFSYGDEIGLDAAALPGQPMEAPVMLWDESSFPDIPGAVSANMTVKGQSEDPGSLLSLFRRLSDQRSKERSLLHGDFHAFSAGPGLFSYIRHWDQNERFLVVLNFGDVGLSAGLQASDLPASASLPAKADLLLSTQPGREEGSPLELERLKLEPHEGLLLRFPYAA

In this experiment the target is 4F2hc (heavy chain subunit of system Xc-, encoded by the SLC3A2 gene), endogenous (human (endogenous in PANC-1)) (UniProt P08195). Put plainly: co-IP; PANC-1 cells treated with or without RSL3.

No constants are given. Whether binding was seen depends on the method and setting. In cells and extracts the contact can be indirect. Some binding calls cover weakened binding; strength is not graded here.

B1: glycosyltransferase B3GNT3, endogenous (enzyme, UniProt Q9Y2A9 1-372)
chain: MKYLRHRRPNATLILAIGAFTLLLFSLLVSPPTCKVQEQPPAIPEALAWPTPPTRPAPAPCHANTSMVTHPDFATQPQHVQNFLLYRHCRHFPLLQDVPPSKCAQPVFLLLVIKSSPSNYVRRELLRRTWGRERKVRGLQLRLLFLVGTASNPHEARKVNRLLELEAQTHGDILQWDFHDSFFNLTLKQVLFLQWQETRCANASFVLNGDDDVFAHTDNMVFYLQDHDPGRHLFVGQLIQNVGPIRAFWSKYYVPEVVTQNERYPPYCGGGGFLLSRFTAAALRRAAHVLDIFPIDDVFLGMCLELEGLKPASHSGIRTSGVRAPSQRLSSFDPCFYRDLLLVHRFLPYEMLLMWDALNQPNLTCGNQTQIY
As to B1, the binding entry is on record as “binds”.
